{"source": "patent US20080311656A1", "about": "“Meiosis arrest in oocytes in vitro” (Novo Nordisk A/S, priority 2002, published 2008)", "test_system": "Human oocytes (COCs)", "assay": "Light and electron microscopy of oocytes arrested by DDMP", "assay_type": "cell-based", "description": "During evaluation at 24 hours and 48 hours culture, part of the oocytes with and without DDMP were fixed for EM analysis.\nA total of 48 oocytes (4 at time of retrieval, 21 after 24 hours, 20 after 48 hours and 3 after 72 hours culture) were fixed in glutaraldehyde 2.5% in cacodylate buffer at pH 7.3 for at least 2 hours at 4° C. at time 0 h, 24 hours and 48 hours of maturation. All oocytes were embedded individually. Afterwards, they were postfixed in OsO4 1% in H2O for 30 min, stained with uranyl acetate 2% in veronal buffer for 60 min, dehydrated through graded alcohols, embedded in SPURR (Taab; Bodson, Liège, Belgium) and left to polymerize overnight at 70° C.\nSemithin sections of 0.5 μm and ultrathin sections of 75 nm were made at approximately 30 levels (range 15-35). The semithin sections were mounted on glass slides and stained with toluidine blue for light microscopical guidance. […]\nIn order to analyse the effect of PDE 3 inhibition on nuclear and cytoplasm organization, ultrastructural observation was performed at the different culture times in oocytes arrested or not by DDMP. The oocytes analyzed did originate from follicles with diameter between 8-12 mm.", "data": [{"smiles": "COc1cc2cc(C3=NNC(=O)CC3C)sc2cc1OC", "note": "(centres unmarked) [DDMP, 4,5-dihydro-6-(5,6-dimethoxybenzo[b]thien-2-yl)-5-methyl-3(2H)-pyridazinone]", "values": [{"measurement": "nuclear morphology of GV oocytes (nuclear membrane)", "setting": "DDMP for 72 hours", "value": "nuclear membrane remained intact and unfolded"}, {"measurement": "migration of organelles in the GV-stage oocytes", "setting": "prolonged nuclear arrest, organelles start to dissociate after 48 hours in DDMP culture", "value": "seemed to affect the migration of organelles"}]}]}
